In US20260193365A1 (GRANITE BIO, published 2026):
These are yes or no findings as the source states them, for the method shown. Some results given as binding are weak or reduced against the parent protein; the word gives no strength.

Biological target: human CCR2 (human)
Assay: cell binding, primary human monocytes

B1: DOC2-ChXRKA (antibody, human IgG1, kappa, V domains shown)
VH: EVQLVESGGGLVKPGGSLKLSCVASGFTLSNYAMSWVRQSPEKRLEWVAEVSSSGIYIYYSDTVTGRFSISRDNAKNTLYLEMSSLRSEDTAIYYCARDRYAYAMDYWGHGTSVIVSS
VL: DIVMTQSPDSLAVSLGERATINCKSSQSLLNSYNQKNSLAWYQQKPGQPPKLLIYFASTRESGVPDRFSGSGSGTDFTLTISSLQAEDVAVYYCQQHYSNPRTFGGGTKLEIKR
binding: binds
